Data as given in US5700799A, “Oxazolidinone antimicrobials containing substituted diazine moieties” (Pharmacia & Upjohn Company, priority 1996, dated 1997).

Tested on: S. pyogenes UC 152
Test: Murine Assay procedure: in vivo antimicrobial activity, survival of infected mice (S. pyogenes UC 152)
Parameters: species or system S. pyogenes (infected female mice)
Settings: Streptococcus pyogenes, UC152, sc, 144 h, control antibiotic, subcutaneous
Protocol: Antimicrobial activity was tested in vivo using the Murine Assay procedure. Groups of female mice (six mice of 18-20 grams each) were injected intraperitoneally with bacteria which were thawed just prior to use and suspended in brain heart infusion with 4% brewers yeast (Staphylococcus aureus) or brain heart infusion (Streptococcus species). Antibiotic treatment at six dose levels per drug was administered one hour and five hours after affection by either oral intubation or subcutaneous routes. Survival was observed daily for six days. ED50 values based on mortality ratios were calculated using probit analysis. The subject compounds were compared against well-known antimicrobial as controls.

CCC[C@@H]1C[C@@H](C(=O)N[C@@H]([C@H]2O[C@H](SC)[C@H](O)[C@@H](O)[C@H]2O)[C@H](C)Cl)N(C)C1 [Clindamycin, reference compound]
ED50: 2.6 mg/kg
